# The supplement of paper PMC9135407
# “And” between values parts separate entries of the source, which are not always exact repeats. Identical values can stand only once. Counter-ions that a name gives are not always drawn. ± gives the standard deviation of the averaged measurements. Some of the results follow. Part of the spread comes from offsets between plates or batches.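 Culture-activated primary human stellate myofibroblasts, where regained lipid droplets signal inactivation. Value: share of Hoechst-counted cells above a per-plate Bodipy cutoff, in duplicate wells, with DMSO negative and nortriptyline positive controls on each plate. Hits: a control-normalized score above the plate's top-tenth-percentile nortriptyline wells, or one of a plate's three best wells. Final well concentrations are not given.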
# Test system: primary human hepatic stellate cells (donor 1)
# Experiment: percent Bodipy-positive cells; higher = more lipid droplet accumulation
# Details: 48 h
# [1] = library stock concentration: 10 mM
# [2] = library stock concentration: 80 uM
# [3] = library stock concentration: 400 uM
# [4] = library stock concentration: 2 mM
# [5] = library stock concentration: 3.33 mM
# [6] = library stock concentration: 1 mM
smiles,measurement,setting,value
CNc1cc(NS(=O)(=O)c2ccc(N)cc2)nc(NC)n1 [Ro 04-6790 dihydrochloride],percent Bodipy-positive cells,[1],9.69 ± 1%
Oc1ccc(Nc2nc(-c3ccc(Cl)cc3)cs2)cc1,percent Bodipy-positive cells,[2],13.6 ± 1.6%
same,percent Bodipy-positive cells,[3],19.2 ± 16%
same,percent Bodipy-positive cells,[4],6.78 ± 3.2%
same,percent Bodipy-positive cells,[5],17.3 ± 1.1%
same,percent Bodipy-positive cells,[1],11.4% and 5.48%
Oc1ccc(Nc2nc(-c3ccc(Cl)cc3)cs2)cc1 [Sphingosine Kinase Inhibitor 2],percent Bodipy-positive cells,[6],4.96 ± 0.32%
NC(=O)c1c(NC(=O)C2CC2)sc2c1CCCC2,percent Bodipy-positive cells,[2],19 ± 9.1%
same,percent Bodipy-positive cells,[3],14.8 ± 4.7%
same,percent Bodipy-positive cells,[4],17.9 ± 6.5%
same,percent Bodipy-positive cells,[1],20.9 ± 1.6%
Cc1ccc(C(=O)NCCCCCC(=O)Nc2ccccc2N)cc1,percent Bodipy-positive cells,[5],36.8 ± 8.2%
same,percent Bodipy-positive cells,[1],83.2 ± 2.6%
"CCCCC(C)CC(O)/C=C/C1C(O)CC(O)C1CCCCCCC(=O)O (stereo not drawn) [17,20-dimethyl Prostaglandin F1.alpha.]",percent Bodipy-positive cells,[6],8.05 ± 0.17%
N#Cc1ccc2[nH]c(O)c(-c3ccc(CN4CCOCC4)cn3)c2c1,percent Bodipy-positive cells,[5],85.5 ± 1.1%
same,percent Bodipy-positive cells,[1],91.11 ± 0.41%
NS(=O)(=O)c1ccc(C(=O)O)cc1,percent Bodipy-positive cells,[1],34.2 ± 5.4%
n(c1N)c(N(CC)C(C)C)c(nc1C(=O)\N=C(\N)/N)Cl [5-(N-Ethyl-N-isopropyl)amiloride],percent Bodipy-positive cells,[1],98.6 ± 1.6%
"CCCCCCCCCCCCC/C=C/[C@@H](O)[C@H](CO)N(C)C [N,N-Dimethylsphingosine]",percent Bodipy-positive cells,[6],23.8 ± 2.6%
COc1cc2ncnc(Nc3ccc(Cl)cc3F)c2cc1OC,percent Bodipy-positive cells,[5],12.2 ± 2.4%
same,percent Bodipy-positive cells,[1],20.6% and 9.25%
Nc1nc2ccc(Cl)cc2n2c(-c3ccccc3)nnc12,percent Bodipy-positive cells,[1],42.7 ± 1.9%
N[C@@H]1CCCN(c2c(/C=C3\SC(=O)NC3=O)cccc2-c2ccccc2)C1,percent Bodipy-positive cells,[2],8.87 ± 8.3%
same,percent Bodipy-positive cells,[3],6.1 ± 0.8%
same,percent Bodipy-positive cells,[4],7.97 ± 0.48%
same,percent Bodipy-positive cells,[5],41.8 ± 1.8%
same,percent Bodipy-positive cells,[1],53.7% and 35.1%
CCN(CC)CCn1c(=O)c(Cc2ccc(OC)cc2)nc2ccccc21 [Caroverine hydrochloride],percent Bodipy-positive cells,[1],45.2 ± 7.2%
Cc1cccc(CCN2CCC(C(=O)c3ccc(NS(C)(=O)=O)cc3)CC2)n1,percent Bodipy-positive cells,library stock concentration: 9.9 mM,7.199 ± 0.053%
Cc1cccc(CCN2CCC(C(=O)c3ccc(NS(C)(=O)=O)cc3)CC2)n1 [E-4031 dihydrochloride],percent Bodipy-positive cells,[1],9.97 ± 2.2%
CS(=O)(=O)c1ccc([C@H](O)[C@@H](COC(=O)CN)NC(=O)C(Cl)Cl)cc1 [Thiamphenicol glycinate],percent Bodipy-positive cells,library stock concentration: 4.8 mM,8.54 ± 0.5%
CO[C@H]1C[C@@H]2CC[C@@H](C)[C@@](O)(O2)C(=O)C(=O)N2CCCC[C@H]2C(=O)O[C@H]([C@H](C)C[C@@H]2CC[C@@H](O)[C@H](OC)C2)CC(=O)[C@H](C)/C=C(\C)[C@@H](O)[C@@H](OC)C(=O)[C@H](C)C[C@H](C)/C=C/C=C/C=C/1C [Rapamycin (Sirolimus)],percent Bodipy-positive cells,[5],5.28 ± 0.52%
same,percent Bodipy-positive cells,[1],13.93 ± 0.12%
CO[C@H]1C[C@@H]2CC[C@@H](C)[C@@](O)(O2)C(=O)C(=O)N2CCCC[C@H]2C(=O)O[C@H]([C@H](C)C[C@@H]2CC[C@@H](O)[C@H](OC)C2)CC(=O)[C@H](C)/C=C(\C)[C@@H](O)[C@@H](OC)C(=O)[C@H](C)C[C@H](C)/C=C/C=C/C=C/1C [Rapamycin],percent Bodipy-positive cells,[2],11.1 ± 9.1%
same,percent Bodipy-positive cells,[3],8.57 ± 1.9%
same,percent Bodipy-positive cells,[6],5.65 ± 0.99%
same,percent Bodipy-positive cells,[4],8.44 ± 0.54%
same,percent Bodipy-positive cells,[5],6.67 ± 0.56%
same,percent Bodipy-positive cells,[1],14.9 ± 2.9%
"Cc1[nH]c(/C=C2\C(=O)Nc3ccccc32)c(C)c1CCC(=O)O [TSU-68 (SU6668, Orantinib)]",percent Bodipy-positive cells,[5],5.5 ± 1%
same,percent Bodipy-positive cells,[1],11.34 ± 0.057%
"Cc1[nH]c(/C=C2\C(=O)Nc3ccccc32)c(C)c1CCC(=O)O [SU-6668 (TSU-68, Orantinib) (0.4 mM)]",percent Bodipy-positive cells,[3],8.15 ± 2.3%
"Cc1[nH]c(/C=C2\C(=O)Nc3ccccc32)c(C)c1CCC(=O)O [SU-6668 (TSU-68, Orantinib) (2 mM)]",percent Bodipy-positive cells,[4],16 ± 0.55%
"Cc1[nH]c(/C=C2\C(=O)Nc3ccccc32)c(C)c1CCC(=O)O [SU-6668 (TSU-68, Orantinib) (10 mM)]",percent Bodipy-positive cells,[1],15.7 ± 0.72%
Cc1[nH]c(/C=C2\C(=O)Nc3ccccc32)c(C)c1CCC(=O)O,percent Bodipy-positive cells,[1],6.19 ± 0.52%
CN(CCOc1ccc(NS(C)(=O)=O)cc1)CCc1ccc(NS(C)(=O)=O)cc1,percent Bodipy-positive cells,[1],12 ± 4.2%
CN(CCOc1ccc(NS(C)(=O)=O)cc1)CCc1ccc(NS(C)(=O)=O)cc1 [Dofetilide],percent Bodipy-positive cells,[5],11.7 ± 6.2%
same,percent Bodipy-positive cells,library stock concentration: 4.5 mM,10.3 ± 5%
CNCC(O)c1ccc(O)c(O)c1 (racemic) [(+/-)-Epinephrine hydrochloride],percent Bodipy-positive cells,[1],30.7 ± 8.7%
CC(=O)N1CCN(c2ccc(OCC3COC(Cn4ccnc4)(c4ccc(Cl)cc4Cl)O3)cc2)CC1 (centres undefined),percent Bodipy-positive cells,[1],20.4 ± 7.9%
CC(=O)N1CCN(c2ccc(OCC3COC(Cn4ccnc4)(c4ccc(Cl)cc4Cl)O3)cc2)CC1 (centres undefined) [Ketoconazole],percent Bodipy-positive cells,,18.1 ± 3.6%
same,percent Bodipy-positive cells,[5],15 ± 0.56%
C#C[C@]1(O)CC[C@H]2[C@@H]3CCc4cc(OC)ccc4[C@H]3CC[C@@]21C,percent Bodipy-positive cells,[1],70.7 ± 6.8%
C#C[C@]1(O)CC[C@H]2[C@@H]3CCc4cc(OC)ccc4[C@H]3CC[C@@]21C [Ethynylestradiol 3-methyl ether],percent Bodipy-positive cells,,10.4 ± 1.4%
C#C[C@]1(O)CC[C@H]2[C@@H]3CCc4cc(OC)ccc4[C@H]3CC[C@@]21C [Mestranol],percent Bodipy-positive cells,[5],9.47 ± 0.12%
same,percent Bodipy-positive cells,library stock concentration: 6.4 mM,27.6 ± 19%
same,percent Bodipy-positive cells,[1],49.4 ± 3.7%
CC(C)NCC(O)c1ccc(NS(C)(=O)=O)cc1 (centres undefined) [Sotalol hydrochloride],percent Bodipy-positive cells,,6.98 ± 3%
same,percent Bodipy-positive cells,[1],7.98 ± 3.8%
